# PubChem BioAssay AID686937 – Drosophila RNAi Screening Center, 2013
# Aim: 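Knock-downs that reduce output of a secreted reporter enzyme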 (primary screen)
# Cells: Drosophila S2 cells expressing secreted horseradish peroxidase
# Reagent: long dsRNA against Drosophila genes
# Time to read-out: about 5.5 days (5 days dsRNA, then 12 h reporter induction)
# Conditions: reporter expression induced after 5 days of dsRNA, read 12 h later; inducer not stated
# Read-out: 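After 5 days of dsRNA and 12 h of reporter induction, medium peroxidase read by chemiluminescence and scored as per-plate z-score; higher values mean more reporter released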
# Reading the numbers: z-score: higher = more reporter secreted into medium
# The deposit covers about 23,000 reagents; this is an unselected part of those with a known target gene and a result. 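Reduced-secretion tags in replicate 1 do not always agree with the z-scores; no criterion for assigning the tags was given.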 Reagents against one gene are numbered here. Names joined by + are all predicted targets of the reagent. Reagent sequences are not shown. Not given: the amount of reagent.
gene,reagent no.,"z-score, replicate 1","z-score, replicate 2","z-score, replicate 3","z-score, replicate 4","phenotype, replicate 1"
Dsor1,1,-0.7,-0.85,,,
Cyp6a23,1,0.34,0.43,,,
His-Psi:CR31616 + His-Psi:CR31615,1,-3.25,-2.03,,,reduced secretion
CG2003,1,0.36,0.25,,,
CG16964,1,0.76,0.16,,,
CG6432,1,0.1,0.33,,,
alpha-Est8,1,0.09,0.15,,,
gcl,1,0.39,0.27,,,
Tim10 + CG42497,1,0.35,0.28,,,
SmD3,1,-2.34,-3.44,,,reduced secretion
Mal-A2,1,0.16,0.17,,,
CG42327,1,0.28,-0.15,,,
CG42327,2,0.19,0.78,,,
sprt,1,0.15,0.21,,,
TwdlB,1,0.5,0.62,,,
btz,1,0.37,0.27,,,
Klp67A,1,-0.3,-0.63,,,
VhaAC39-2,1,0.27,0.33,,,
CG32536 + CG32537,1,-0.63,-1.07,0.35,-0.67,
CG3815,1,0.47,0.59,,,
Cypl,1,0.46,0.21,,,
out,1,-0.18,-0.19,,,
Cpr62Bc,1,0.34,0.34,,,
CG42700,1,-2.35,-2.38,,,reduced secretion
CG42700,2,0.3,0.02,,,
CG15546,1,0.44,0.4,,,
CG15546,2,1.42,0.25,,,
Vha44,1,-0.7,-0.24,,,
Vha44,2,0.31,0.14,,,
pncr004:X (retired record),1,0.29,-0.48,,,
slp2,1,0.35,0.25,,,
CG9922,1,0.33,0.14,,,
CG43428,1,0.29,0.26,,,
Acp53Ea,1,0.31,0.45,,,
CG9624,1,0.3,0.27,,,
CG2076,1,0.44,0,,,
CG15293,1,-0.06,0.46,,,
Ir51a,1,0.6,-0.56,,,
Rbcn-3B,1,0.3,0.39,,,
CG1632,1,0.23,0.27,,,
CG1632,2,0.24,0.66,,,
CG6356,1,0.37,0.35,,,
Cpr51A,1,0.13,0.26,,,
CG6083,1,0.18,0.24,,,
CG10000,1,0.13,0.17,,,
Traf4,1,0.68,0.58,,,
Traf4,2,0.42,0.33,,,
Adck1,1,0.24,0.05,,,
Grip91,1,0.19,-0.35,,,
His3.3A,1,-1.38,-1.39,,,
CG2680,1,0.26,0.19,,,
Dh44-R2,1,0.18,0.22,,,
Dh44-R2,2,0.4,0.41,,,
Lamtor2 + CG30120,1,0.5,0.51,,,
Lamtor2 + CG30120,2,-0.37,-0.4,,,
Capr,1,0.24,0.4,,,
CG32816,1,0.37,-0.08,,,
CG14502,1,0.07,0.29,,,
CG15882,1,0.49,0.3,,,
sut1,1,0.37,0.44,,,
ics,1,0.52,0.28,,,
asRNA:CR30267,1,0.12,-0.48,,,
lncRNA:CR43493 + l(1)G0196,1,0.59,0.67,,,
dy,1,0.35,0.17,,,
CG45002,1,0.05,0.13,,,
CG18094,1,0.11,0.3,,,
CG13501,1,0.2,0.1,,,
Vps16B,1,0.28,0.44,,,
CG13954,1,0.13,0.22,,,
CG32354,1,0.17,0.14,,,
CG32354,2,0.39,0.51,0.39,0.47,
CG32354,3,0.44,0.87,,,
ssp3,1,1.65,-0.04,,,
ssp3,2,0.47,0.7,,,
topi,1,0.24,0.5,,,
CG31156,1,0.4,0.49,,,
CG31156,2,0.38,0.37,,,
E(spl)m3-HLH,1,-1.65,-0.58,,,reduced secretion
Brd,1,0.36,0.28,,,
mus304,1,0.09,0.08,,,
CG8778,1,0.34,-0.12,,,
Cpr65Ay,1,0.02,-0.34,,,

Laid out differently: results already given
{"gene":"CG6432","reagent no.":1,"z-score, replicate 1":0.1,"z-score, replicate 2":0.33}
{"gene":"alpha-Est8","reagent no.":1,"z-score, replicate 1":0.09,"z-score, replicate 2":0.15}
{"gene":"gcl","reagent no.":1,"z-score, replicate 1":0.39,"z-score, replicate 2":0.27}
{"gene":"Tim10 + CG42497","reagent no.":1,"z-score, replicate 1":0.35,"z-score, replicate 2":0.28}
{"gene":"SmD3","reagent no.":1,"z-score, replicate 1":-2.34,"z-score, replicate 2":-3.44,"phenotype, replicate 1":"reduced secretion"}
{"gene":"Mal-A2","reagent no.":1,"z-score, replicate 1":0.16,"z-score, replicate 2":0.17}
{"gene":"CG42327","reagent no.":1,"z-score, replicate 1":0.28,"z-score, replicate 2":-0.15}
{"gene":"CG42327","reagent no.":2,"z-score, replicate 1":0.19,"z-score, replicate 2":0.78}
